# Measurements published in paper PMC6208443, “Arabidopsis AGDP1 links H3K9me2 to DNA methylation in heterochromatin” (Nature Communications, 2018).
# T1: Flag-AGDP1 (Arabidopsis thaliana) (UniProt Q500V5)
# T1 sequence: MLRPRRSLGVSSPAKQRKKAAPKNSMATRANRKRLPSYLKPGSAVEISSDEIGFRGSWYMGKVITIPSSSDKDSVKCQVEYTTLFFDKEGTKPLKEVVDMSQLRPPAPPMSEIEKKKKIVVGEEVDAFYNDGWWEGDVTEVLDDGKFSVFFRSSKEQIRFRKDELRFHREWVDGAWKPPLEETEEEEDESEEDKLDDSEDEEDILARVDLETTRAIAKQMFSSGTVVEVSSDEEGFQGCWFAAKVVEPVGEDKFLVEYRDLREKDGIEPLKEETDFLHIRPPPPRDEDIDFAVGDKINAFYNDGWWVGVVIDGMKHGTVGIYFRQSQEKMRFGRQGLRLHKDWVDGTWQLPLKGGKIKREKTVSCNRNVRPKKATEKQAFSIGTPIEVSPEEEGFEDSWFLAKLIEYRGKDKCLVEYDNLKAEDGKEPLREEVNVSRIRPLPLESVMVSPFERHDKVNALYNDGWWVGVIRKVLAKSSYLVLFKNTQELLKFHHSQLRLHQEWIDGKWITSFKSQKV
# Target: T1, Flag-AGDP1 (Arabidopsis thaliana)
# Test: affinity purification with mass spectrometry; immunoprecipitation of Flag-AGDP1 from pAGDP1-Flag-AGDP1 transgenic plants followed by mass spectrometry (IP-MS), four replicates
row,Binder,binding
1,"SUVH4 (protein, UniProt Q8GZB6 1-624) MAGKRKRANAPDQTERRSSVRVQKVRQKALDEKARLVQERVKLLSDRKSEICVDDTELHEKEEENVDGSPKRRSPPKLTAMQKGKQKLSVSLNGKDVNLEPHLKVTKCLRLFNKQYLLCVQAKLSRPDLKGVTEMIKAKAILYPRKIIGDLPGIDVGHRFFSRAEMCAVGFHNHWLNGIDYMSMEYEKEYSNYKLPLAVSIVMSGQYEDDLDNADTVTYTGQGGHNLTGNKRQIKDQLLERGNLALKHCCEYNVPVRVTRGHNCKSSYTKRVYTYDGLYKVEKFWAQKGVSGFTVYKYRLKRLEGQPELTTDQVNFVAGRIPTSTSEIEGLVCEDISGGLEFKGIPATNRVDDSPVSPTSGFTYIKSLIIEPNVIIPKSSTGCNCRGSCTDSKKCACAKLNGGNFPYVDLNDGRLIESRDVVFECGPHCGCGPKCVNRTSQKRLRFNLEVFRSAKKGWAVRSWEYIPAGSPVCEYIGVVRRTADVDTISDNEYIFEIDCQQTMQGLGGRQRRLRDVAVPMNNGVSQSSEDENAPEFCIDAGSTGNFARFINHSCEPNLFVQCVLSSHQDIRLARVVLFAADNISPMQELTYDYGYALDSVHGPDGKVKQLACYCGALNCRKRLY",no binding
2,"SUVH5 (protein, UniProt O82175 1-794) MVHSESSILSSLRGGDGGGIPCSKDELAINGSYTDPMGRRKSKRFKVAAESEFSPDFGSITRQLRSRRMQKEFTVETYETRNVSDVCVLSSQADVELIPGEIVAERDSFKSVDCNDMSVGLTEGAESLGVNMQEPMKDRNMPENTSEQNMVEVHPPSISLPEEDMMGSVCRKSITGTKELHGRTISVGRDLSPNMGSKFSKNGKTAKRSISVEEENLVLEKSDSGDHLGPSPEVLELEKSEVWIITDKGVVMPSPVKPSEKRNGDYGEGSMRKNSERVALDKKRLASKFRLSNGGLPSCSSSGDSARYKVKETMRLFHETCKKIMQEEEARPRKRDGGNFKVVCEASKILKSKGKNLYSGTQIIGTVPGVEVGDEFQYRMELNLLGIHRPSQSGIDYMKDDGGELVATSIVSSGGYNDVLDNSDVLIYTGQGGNVGKKKNNEPPKDQQLVTGNLALKNSINKKNPVRVIRGIKNTTLQSSVVAKNYVYDGLYLVEEYWEETGSHGKLVFKFKLRRIPGQPELPWKEVAKSKKSEFRDGLCNVDITEGKETLPICAVNNLDDEKPPPFIYTAKMIYPDWCRPIPPKSCGCTNGCSKSKNCACIVKNGGKIPYYDGAIVEIKPLVYECGPHCKCPPSCNMRVSQHGIKIKLEIFKTESRGWGVRSLESIPIGSFICEYAGELLEDKQAESLTGKDEYLFDLGDEDDPFTINAAQKGNIGRFINHSCSPNLYAQDVLYDHEEIRIPHIMFFALDNIPPLQELSYDYNYKIDQVYDSNGNIKKKFCYCGSAECSGRLY",no binding
3,"CMT3 (protein, UniProt Q94F88 1-839) MAPKRKRPATKDDTTKSIPKPKKRAPKRAKTVKEEPVTVVEEGEKHVARFLDEPIPESEAKSTWPDRYKPIEVQPPKASSRKKTKDDEKVEIIRARCHYRRAIVDERQIYELNDDAYVQSGEGKDPFICKIIEMFEGANGKLYFTARWFYRPSDTVMKEFEILIKKKRVFFSEIQDTNELGLLEKKLNILMIPLNENTKETIPATENCDFFCDMNYFLPYDTFEAIQQETMMAISESSTISSDTDIREGAAAISEIGECSQETEGHKKATLLDLYSGCGAMSTGLCMGAQLSGLNLVTKWAVDMNAHACKSLQHNHPETNVRNMTAEDFLFLLKEWEKLCIHFSLRNSPNSEEYANLHGLNNVEDNEDVSEESENEDDGEVFTVDKIVGISFGVPKKLLKRGLYLKVRWLNYDDSHDTWEPIEGLSNCRGKIEEFVKLGYKSGILPLPGGVDVVCGGPPCQGISGHNRFRNLLDPLEDQKNKQLLVYMNIVEYLKPKFVLMENVVDMLKMAKGYLARFAVGRLLQMNYQVRNGMMAAGAYGLAQFRLRFFLWGALPSEIIPQFPLPTHDLVHRGNIVKEFQGNIVAYDEGHTVKLADKLLLKDVISDLPAVANSEKRDEITYDKDPTTPFQKFIRLRKDEASGSQSKSKSKKHVLYDHHPLNLNINDYERVCQVPKRKGANFRDFPGVIVGPGNVVKLEEGKERVKLESGKTLVPDYALTYVDGKSCKPFGRLWWDEIVPTVVTRAEPHNQVIIHPEQNRVLSIRENARLQGFPDDYKLFGPPKQKYIQVGNAVAVPVAKALGYALGTAFQGLAVGKDPLLTLPEGFAFMKPTLPSELA",no binding

# More lines, now with the values ahead:
row,binding,Binder
1,no binding,"SUVH6 (protein, UniProt Q8VZ17 1-790) MEMGVMENLMVHTEISKVKSQSNGEVEKRGVSVLENGGVCKLDRMSGLKFKRRKVFAVRDFPPGCGSRAMEVKIACENGNVVEDVKVVESLVKEEESLGQRDASENVSDIRMAEPVEVQPLRICLPGGDVVRDLSVTAGDECSNSEQIVAGSGVSSSSGTENIVRDIVVYADESSLGMDNLDQTQPLEIEMSDVAVAKPRLVAGRKKAKKGIACHSSLKVVSREFGEGSRKKKSKKNLYWRDRESLDSPEQLRILGVGTSSGSSSGDSSRNKVKETLRLFHGVCRKILQEDEAKPEDQRRKGKGLRIDFEASTILKRNGKFLNSGVHILGEVPGVEVGDEFQYRMELNILGIHKPSQAGIDYMKYGKAKVATSIVASGGYDDHLDNSDVLTYTGQGGNVMQVKKKGEELKEPEDQKLITGNLALATSIEKQTPVRVIRGKHKSTHDKSKGGNYVYDGLYLVEKYWQQVGSHGMNVFKFQLRRIPGQPELSWVEVKKSKSKYREGLCKLDISEGKEQSPISAVNEIDDEKPPLFTYTVKLIYPDWCRPVPPKSCCCTTRCTEAEARVCACVEKNGGEIPYNFDGAIVGAKPTIYECGPLCKCPSSCYLRVTQHGIKLPLEIFKTKSRGWGVRCLKSIPIGSFICEYVGELLEDSEAERRIGNDEYLFDIGNRYDNSLAQGMSELMLGTQAGRSMAEGDESSGFTIDAASKGNVGRFINHSCSPNLYAQNVLYDHEDSRIPHVMFFAQDNIPPLQELCYDYNYALDQVRDSKGNIKQKPCFCGAAVCRRRLY"
2,no binding,"CMT2 (protein, UniProt Q94F87 1-1295) MLSPAKCESEEAQAPLDLHSSSRSEPECLSLVLWCPNPEEAAPSSTRELIKLPDNGEMSLRRSTTLNCNSPEENGGEGRVSQRKSSRGKSQPLLMLTNGCQLRRSPRFRALHANFDNVCSVPVTKGGVSQRKFSRGKSQPLLTLTNGCQLRRSPRFRAVDGNFDSVCSVPVTGKFGSRKRKSNSALDKKESSDSEGLTFKDIAVIAKSLEMEIISECQYKNNVAEGRSRLQDPAKRKVDSDTLLYSSINSSKQSLGSNKRMRRSQRFMKGTENEGEENLGKSKGKGMSLASCSFRRSTRLSGTVETGNTETLNRRKDCGPALCGAEQVRGTERLVQISKKDHCCEAMKKCEGDGLVSSKQELLVFPSGCIKKTVNGCRDRTLGKPRSSGLNTDDIHTSSLKISKNDTSNGLTMTTALVEQDAMESLLQGKTSACGAADKGKTREMHVNSTVIYLSDSDEPSSIEYLNGDNLTQVESGSALSSGGNEGIVSLDLNNPTKSTKRKGKRVTRTAVQEQNKRSICFFIGEPLSCEEAQERWRWRYELKERKSKSRGQQSEDDEDKIVANVECHYSQAKVDGHTFSLGDFAYIKGEEEETHVGQIVEFFKTTDGESYFRVQWFYRATDTIMERQATNHDKRRLFYSTVMNDNPVDCLISKVTVLQVSPRVGLKPNSIKSDYYFDMEYCVEYSTFQTLRNPKTSENKLECCADVVPTESTESILKKKSFSGELPVLDLYSGCGGMSTGLSLGAKISGVDVVTKWAVDQNTAACKSLKLNHPNTQVRNDAAGDFLQLLKEWDKLCKRYVFNNDQRTDTLRSVNSTKETSGSSSSSDDDSDSEEYEVEKLVDICFGDHDKTGKNGLKFKVHWKGYRSDEDTWELAEELSNCQDAIREFVTSGFKSKILPLPGRVGVICGGPPCQGISGYNRHRNVDSPLNDERNQQIIVFMDIVEYLKPSYVLMENVVDILRMDKGSLGRYALSRLVNMRYQARLGIMTAGCYGLSQFRSRVFMWGAVPNKNLPPFPLPTHDVIVRYGLPLEFERNVVAYAEGQPRKLEKALVLKDAISDLPHVSNDEDREKLPYESLPKTDFQRYIRSTKRDLTGSAIDNCNKRTMLLHDHRPFHINEDDYARVCQIPKRKGANFRDLPGLIVRNNTVCRDPSMEPVILPSGKPLVPGYVFTFQQGKSKRPFARLWWDETVPTVLTVPTCHSQALLHPEQDRVLTIRESARLQGFPDYFQFCGTIKERYCQIGNAVAVSVSRALGYSLGMAFRGLARDEHLIKLPQNFSHSTYPQLQETIPH"

# Results are given in words; binding and its absence hold for the method and conditions named. Binding seen in cells or lysates may run through a third protein. A yes stands for co-enrichment or nearness to the bait. Other partners may have been found. No binding means not detected with the bait. Where a sequence is shown, tags or fusion partners need not be part of it.
